In the supplement of paper PMC8728848:
Some of the results follow.

Columns and labels:
Assay in all cases: glycan array binding signal (z-score within array); higher = stronger binding
Conditions in all cases: glycan notation: IUPAC condensed, linker removed
[1] = target: Gal(a1-3)[Gal(a1-4)]Gal(b1-4)GlcNAc
Procedure, shortened: (§1)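 Columns mapping to the same glycan were averaged after glycan names were converted to IUPAC-condensed notation. The data come from 3228 arrays in the Consortium for Functional Glycomics database, limited to those with an available protein sequence. Binding is reported as a within-array Z-score averaged across arrays of one protein sequence and across linkers.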

[2] = target: Gal(a1-4)Gal(b1-3)GlcNAc(b1-2)Man(a1-3)[Gal(a1-4)Gal(b1-3)GlcNAc(b1-2)Man(a1-6)]Man(b1-4)GlcNAc(b1-4)GlcNAc
Procedure, shortened: as §1

[3] = target: Gal(a1-4)Gal(b1-4)Glc
Procedure, shortened: as §1

[4] = target: Gal(a1-4)Gal(b1-4)GlcNAc
Procedure, shortened: as §1

[5] = target: Gal(a1-4)Gal(b1-4)GlcNAc(b1-2)Man(a1-3)[Gal(a1-4)Gal(b1-4)GlcNAc(b1-2)Man(a1-6)]Man(b1-4)GlcNAc(b1-4)GlcNAc
Procedure, shortened: as §1

[6] = target: Gal(a1-4)Gal(b1-4)GlcNAc(b1-3)Gal(b1-4)Glc
Procedure, shortened: as §1

[7] = target: Gal(a1-4)GlcNAc
Procedure, shortened: as §1

[8] = target: Gal(a1-6)Glc
Procedure, shortened: as §1

[9] = target: Gal(b1-2)Gal
Procedure, shortened: as §1

[10] = target: Gal(b1-3)Gal
Procedure, shortened: as §1

[11] = target: Gal(b1-3)Gal(b1-4)GlcNAc
Procedure, shortened: as §1

[12] = target: Gal(b1-3)GalNAc
Procedure, shortened: as §1

[13] = target: Gal(b1-3)GalNAc(a1-3)[Fuc(a1-2)]Gal(b1-4)Glc
Procedure, shortened: as §1

[14] = target: Gal(b1-3)GalNAc(a1-3)[Fuc(a1-2)]Gal(b1-4)GlcNAc
Procedure, shortened: as §1

[15] = target: Gal(b1-3)GalNAc(b1-3)Gal
Procedure, shortened: as §1

[16] = target: Gal(b1-3)GalNAc(b1-3)Gal(a1-4)Gal(b1-4)Glc
Procedure, shortened: as §1

[17] = target: Gal(b1-3)GalNAc(b1-4)Gal(b1-4)Glc
Procedure, shortened: as §1

[18] = target: Gal(b1-3)GalNAc(b1-4)[Neu5Ac(a2-3)]Gal(b1-4)Glc
Procedure, shortened: as §1

[19] = target: Gal(b1-3)GlcNAc
Procedure, shortened: as §1

[20] = target: Gal(b1-3)GlcNAc(a1-3)Gal(b1-4)GlcNAc
Procedure, shortened: as §1

[21] = target: Gal(b1-3)GlcNAc(a1-6)Gal(b1-4)GlcNAc
Procedure, shortened: as §1

[22] = target: Gal(b1-3)GlcNAc(b1-2)Man
Procedure, shortened: as §1

[23] = target: Gal(b1-3)GlcNAc(b1-2)Man(a1-3)[Gal(b1-3)GlcNAc(b1-2)Man(a1-6)]Man(b1-4)GlcNAc(b1-4)GlcNAc
Procedure, shortened: as §1

[24] = target: Gal(b1-3)GlcNAc(b1-2)Man(a1-3)[Gal(b1-3)GlcNAc(b1-2)Man(a1-6)]Man(b1-4)GlcNAc(b1-4)[Fuc(a1-6)]GlcNAc
Procedure, shortened: as §1

[25] = target: Gal(b1-3)GlcNAc(b1-2)Man(a1-3)[GlcNAc(b1-4)][Gal(b1-3)GlcNAc(b1-2)Man(a1-6)]Man(b1-4)GlcNAc(b1-4)GlcNAc
Procedure, shortened: as §1

[26] = target: Gal(b1-3)GlcNAc(b1-2)[Gal(b1-3)GlcNAc(b1-6)]Man(a1-6)[Gal(b1-3)GlcNAc(b1-2)Man(a1-3)]Man(b1-4)GlcNAc(b1-4)GlcNAc
Procedure, shortened: as §1

[27] = target: Gal(b1-3)GlcNAc(b1-3)Gal(b1-3)GlcNAc
Procedure, shortened: as §1

[28] = target: Gal(b1-3)GlcNAc(b1-3)Gal(b1-4)Glc
Procedure, shortened: as §1

[29] = target: Gal(b1-3)GlcNAc(b1-3)Gal(b1-4)GlcNAc
Procedure, shortened: as §1

[30] = target: Gal(b1-3)GlcNAc(b1-3)Gal(b1-4)GlcNAc(b1-2)Man(a1-3)[Gal(b1-3)GlcNAc(b1-3)Gal(b1-4)GlcNAc(b1-2)Man(a1-6)]Man(b1-4)GlcNAc(b1-4)GlcNAc
Procedure, shortened: as §1

[31] = target: Gal(b1-3)GlcNAc(b1-3)Gal(b1-4)GlcNAc(b1-2)[Gal(b1-3)GlcNAc(b1-3)Gal(b1-4)GlcNAc(b1-6)]Man(a1-6)[Gal(b1-3)GlcNAc(b1-3)Gal(b1-4)GlcNAc(b1-2)Man(a1-3)]Man(b1-4)GlcNAc(b1-4)[Fuc(a1-6)]GlcNAc
Procedure, shortened: as §1

[32] = target: Gal(b1-3)GlcNAc(b1-3)Gal(b1-4)GlcNAc(b1-3)Gal(b1-4)GlcNAc(b1-2)[Gal(b1-3)GlcNAc(b1-3)Gal(b1-4)GlcNAc(b1-3)Gal(b1-4)GlcNAc(b1-6)]Man(a1-6)[Gal(b1-3)GlcNAc(b1-3)Gal(b1-4)GlcNAc(b1-3)Gal(b1-4)GlcNAc(b1-2)Man(a1-3)]Man(b1-4)GlcNAc(b1-4)[Fuc(a1-6)]GlcNAc
Procedure, shortened: as §1

[33] = target: Gal(b1-3)GlcNAc(b1-3)Gal(b1-4)GlcNAc(b1-6)[Gal(b1-3)GlcNAc(b1-3)]Gal(b1-4)Glc
Procedure, shortened: as §1

[34] = target: Gal(b1-3)GlcNAc(b1-3)Gal(b1-4)[Fuc(a1-3)]GlcNAc
Procedure, shortened: as §1

[35] = target: Gal(b1-3)GlcNAc(b1-3)Gal(b1-4)[Fuc(a1-3)]GlcNAc(b1-6)[Gal(b1-3)GlcNAc(b1-3)]Gal(b1-4)Glc
Procedure, shortened: as §1

[36] = target: Gal(b1-3)GlcNAc(b1-3)GalNAc
Procedure, shortened: as §1

[37] = target: Gal(b1-3)GlcNAc(b1-6)Gal(b1-4)GlcNAc
Procedure, shortened: as §1

[38] = target: Gal(b1-3)GlcNAc(b1-6)GalNAc
Procedure, shortened: as §1

B1: PX9916F-bfa-443-24-443 (Bacteroides fragilis) (protein)
chain: DIRPVGSVIPQTAEEYRALLARAYLNVPNDRGLACLRSDEMLVNDNEYDRNSYGDIERWNDVSPFPGTSQFTWSNFYNVLFIANQVIESQKEITEGTPEVVNQLVGEAHLLRAYLHFVLVNLHGQPYTKSGALNSKSIPLKLDTDLEKTLGRNTVEEVYTSILSDIEHARELINKEKWETVFSYRFNVLSVDALQSRVSLYMGAWPKCLESAEAVLAKKSVLVDMNETPLALPNHFESVESITALEQVMGSSVNNAVWVPATFLALYQEGDKRLAAYFAAPDENGNRKSSKGGKREFSCTFRVGELYLNAAEAAANMDKLPHARMRLLELMRKRYTPEAYDKKENAVNVMDKNALISEILNERARELAFEGHRWFDLRRTTRPRMVKVLQGKTYILEQDDPRYTIPIPRDAIAANPGLAN
- glycan array binding signal (z-score) [1]: 0.094
- glycan array binding signal (z-score) [2]: 0.443
- glycan array binding signal (z-score) [3]: -0.55
- glycan array binding signal (z-score) [4]: -0.178
- glycan array binding signal (z-score) [5]: 1.5
- glycan array binding signal (z-score) [6]: -0.404
- glycan array binding signal (z-score) [7]: -0.265
- glycan array binding signal (z-score) [8]: -0.823
- glycan array binding signal (z-score) [9]: 0.596
- glycan array binding signal (z-score) [10]: -0.318
- glycan array binding signal (z-score) [11]: -1.38
- glycan array binding signal (z-score) [12]: -0.343
- glycan array binding signal (z-score) [13]: -0.677
- glycan array binding signal (z-score) [14]: 0.156
- glycan array binding signal (z-score) [15]: 0.114
- glycan array binding signal (z-score) [16]: 0.271
- glycan array binding signal (z-score) [17]: -0.05
- glycan array binding signal (z-score) [18]: -0.54
- glycan array binding signal (z-score) [19]: -0.409
- glycan array binding signal (z-score) [20]: -0.861
- glycan array binding signal (z-score) [21]: 0.993
- glycan array binding signal (z-score) [22]: -0.681
- glycan array binding signal (z-score) [23]: 0.347
- glycan array binding signal (z-score) [24]: 1.79
- glycan array binding signal (z-score) [25]: -0.193
- glycan array binding signal (z-score) [26]: -1
- glycan array binding signal (z-score) [27]: 0.006
- glycan array binding signal (z-score) [28]: -0.419
- glycan array binding signal (z-score) [29]: -0.333
- glycan array binding signal (z-score) [30]: 1.31
- glycan array binding signal (z-score) [31]: 0.489
- glycan array binding signal (z-score) [32]: 1.06
- glycan array binding signal (z-score) [33]: 1.58
- glycan array binding signal (z-score) [34]: -0.126
- glycan array binding signal (z-score) [35]: -0.613
- glycan array binding signal (z-score) [36]: 0.005
- glycan array binding signal (z-score) [37]: -0.437
- glycan array binding signal (z-score) [38]: -0.376
